The assay has as its target T1, Pdcd4(39–91)luc (Pdcd4 amino acids 39–91 fused to firefly luciferase) (UniProt Q61823).
T1 sequence: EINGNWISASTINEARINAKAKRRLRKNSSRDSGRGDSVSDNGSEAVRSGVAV
Nature of the assay: co-IP; anti-luciferase antibody and Protein A Sepharose on whole-cell extracts of HEK293 cells stably expressing Pdcd4(39-91)luc and transfected with β-TrCP1; cells treated 8 h with DMSO or TPA (10 nM) with or without erioflorin (5 µM), with MG132; IP buffer 50 mM Tris-HCl pH 7.4, 300 mM NaCl, 5 mM EDTA, 1% NP-40; western for β-TrCP.

No constants are given. Whether binding was seen depends on the method and setting. Binding seen in cells or lysates may run through a third protein. Some entries that bind do so weakly or less than the wild type. Where a sequence is shown, tags or fusion partners need not be part of it.

B1: β-transducin repeat-containing protein 1 (β-TrCP1), overexpressed in HEK293 cells (natural protein, UniProt Q9Y297 1-605, looked up)
chain: MDPAEAVLQEKALKFMCSMPRSLWLGCSSLADSMPSLRCLYNPGTGALTAFQNSSEREDCNNGEPPRKIIPEKNSLRQTYNSCARLCLNQETVCLASTAMKTENCVAKTKLANGTSSMIVPKQRKLSASYEKEKELCVKYFEQWSESDQVEFVEHLISQMCHYQHGHINSYLKPMLQRDFITALPARGLDHIAENILSYLDAKSLCAAELVCKEWYRVTSDGMLWKKLIERMVRTDSLWRGLAERRGWGQYLFKNKPPDGNAPPNSFYRALYPKIIQDIETIESNWRCGRHSLQRIHCRSETSKGVYCLQYDDQKIVSGLRDNTIKIWDKNTLECKRILTGHTGSVLCLQYDERVIITGSSDSTVRVWDVNTGEMLNTLIHHCEAVLHLRFNNGMMVTCSKDRSIAVWDMASPTDITLRRVLVGHRAAVNVVDFDDKYIVSASGDRTIKVWNTSTCEFVRTLNGHKRGIACLQYRDRLVVSGSSDNTIRLWDIECGACLRVLEGHEELVRCIRFDNKRIVSGAYDGKIKVWDLVAALDPRAPAGTLCLRTLVEHSGRVFRLQFDEFQIVSSSHDDTILIWDFLNDPAAQAEPPRSPSRTYTYISR
Regarding B1, the binding result was “binds”.

These data come from paper PMC3462793, “Erioflorin Stabilizes the Tumor Suppressor Pdcd4 by Inhibiting Its Interaction with the E3-ligase β-TrCP1” (PLoS ONE, 2012).
